The test concerns the target T1, CCR1 (UniProt P32246).
T1 sequence (looked up): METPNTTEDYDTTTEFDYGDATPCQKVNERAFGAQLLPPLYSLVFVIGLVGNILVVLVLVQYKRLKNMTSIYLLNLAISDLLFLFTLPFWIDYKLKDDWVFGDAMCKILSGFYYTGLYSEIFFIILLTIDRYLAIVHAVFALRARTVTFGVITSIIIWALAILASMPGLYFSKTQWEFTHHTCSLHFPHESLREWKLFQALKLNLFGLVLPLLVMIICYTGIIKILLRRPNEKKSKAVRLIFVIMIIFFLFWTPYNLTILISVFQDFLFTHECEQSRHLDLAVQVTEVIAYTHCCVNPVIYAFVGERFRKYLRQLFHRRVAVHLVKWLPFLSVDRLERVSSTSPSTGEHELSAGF
Description: competition SPA on CCR1 CHO membranes.

By UniProt entry, the sequences of proteins in these tests, tags left out. Where a name states a change or a piece, a line headed by the entry shows the natural chain unless it says otherwise.
UniProt P13501: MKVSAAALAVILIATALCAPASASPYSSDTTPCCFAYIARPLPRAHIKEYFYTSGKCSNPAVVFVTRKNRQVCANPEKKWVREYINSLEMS

No constants are given. Whether binding was seen depends on the method and setting. Some binding calls cover weakened binding; strength is not graded here.

Regarding “S1C-5 kDaPEG-RANTES (from UniProt P13501 25-91) (ligand)”, the binding entry is recorded as “binds”.

As to “S4C-5 kDaPEG-RANTES (from UniProt P13501 24-91) (ligand)”, the binding entry is given as “binds”.

On to “S5C-5 kDaPEG-RANTES (from UniProt P13501 24-91) (ligand)”, for which the binding result is reported as “binds”.

(Values after US20080299072A1.)
